From US6171795
For some of these results: A negative result means that nothing was seen under these conditions. Protein sequences can lack the tags named with them. For some of these results: Results from cells or extracts need not show a direct contact. For some of these results: The exact form of at least one protein or probe is not confirmed.

How the values were obtained:
[1] = target: T1, murine CD8-murine CD40 ligand fusion (murine p40) (Mus musculus) (UniProt P27548); test: inhibition of the protein; conditions: 2'-F pyrimidines (t printed for u); unable to inhibit binding of murine CD8-murine CD40L to cells; data not shown; purified recombinant protein; protein details: murine CD8 fusion; dose not given here
T1 sequence (looked up, limits assumed): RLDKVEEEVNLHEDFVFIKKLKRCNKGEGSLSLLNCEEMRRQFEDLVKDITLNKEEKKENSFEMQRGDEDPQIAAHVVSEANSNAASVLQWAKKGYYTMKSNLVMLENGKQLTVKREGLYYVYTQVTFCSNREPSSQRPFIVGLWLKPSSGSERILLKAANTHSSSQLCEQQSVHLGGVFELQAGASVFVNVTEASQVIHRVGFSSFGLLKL

[2] = target: T2, p40 (murine CD8-human CD40 ligand fusion + p40/p50) (Homo sapiens) (UniProt P29965); test: binding assay; conditions: 2'-F pyrimidines (t printed for u); biphasic binding curve, plateau RNA binding poor (~15%); assay method not stated; purified recombinant protein
T2 sequence (looked up, limits assumed): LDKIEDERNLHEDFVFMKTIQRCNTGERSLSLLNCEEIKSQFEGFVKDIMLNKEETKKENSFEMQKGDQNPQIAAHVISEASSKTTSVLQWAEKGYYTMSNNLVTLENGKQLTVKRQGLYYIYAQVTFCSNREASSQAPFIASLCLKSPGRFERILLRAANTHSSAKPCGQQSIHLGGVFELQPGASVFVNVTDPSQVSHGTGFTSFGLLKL

[3] = target: T3, CD40 ligand (full-length, on transfected Ltk cells clone #279) (Homo sapiens) (UniProt P29965); test: flow cytometry; conditions: 2'-F pyrimidines (t printed for u); biotinylated aptamers stain hCD40L Ltk cells, SA-PE, 4 C; protein on the cell surface; label: biotin; variant of p40R6.8 (p40 Aptamer 8)
T3 sequence (looked up): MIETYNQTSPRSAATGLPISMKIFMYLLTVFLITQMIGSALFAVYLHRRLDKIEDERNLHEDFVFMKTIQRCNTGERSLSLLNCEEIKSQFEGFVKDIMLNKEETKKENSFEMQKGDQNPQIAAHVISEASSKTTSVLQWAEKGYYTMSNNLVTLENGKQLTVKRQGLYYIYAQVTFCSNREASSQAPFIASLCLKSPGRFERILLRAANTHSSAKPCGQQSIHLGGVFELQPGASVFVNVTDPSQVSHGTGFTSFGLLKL

Sequence | functional effect of the aptamer [1] | Kd [2] | binding result [3]
GGGAGGACGAUGCGGAAUGUUUAUUCAUAGAACAGGGUCUACUCAUCACAUCCCCCAGACGACUCGCCCG [p18R6.7 (p18 Aptamer 7)] | not active |  | 
GGGAGGACGAUGCGGAUCUACGCACUCGCAAAAGCAUCAAAUGUGUCCGCCGCCUCAGACGACUCGCCCG [p40R6.8 (p40 Aptamer 8)] | not active | 0.2 nM | 
GGGAGGACGAUGCGGAUCUACGCACUCGCAAAAGCAUCAAAUGUGUCCGCCGCCUCAGACGACUCGCCCG [p40R6.8-biotin] |  |  | binds
